These are yes or no findings as the source states them, for the method shown. Binding seen in cells or lysates may run through a third protein. Binding can be weak; no strength is given.

By UniProt entry, the sequences of proteins in these tests, tags left out. Where a name states a change or a piece, a line headed by the entry shows the natural chain unless it says otherwise.
UniProt Q5Z7R9: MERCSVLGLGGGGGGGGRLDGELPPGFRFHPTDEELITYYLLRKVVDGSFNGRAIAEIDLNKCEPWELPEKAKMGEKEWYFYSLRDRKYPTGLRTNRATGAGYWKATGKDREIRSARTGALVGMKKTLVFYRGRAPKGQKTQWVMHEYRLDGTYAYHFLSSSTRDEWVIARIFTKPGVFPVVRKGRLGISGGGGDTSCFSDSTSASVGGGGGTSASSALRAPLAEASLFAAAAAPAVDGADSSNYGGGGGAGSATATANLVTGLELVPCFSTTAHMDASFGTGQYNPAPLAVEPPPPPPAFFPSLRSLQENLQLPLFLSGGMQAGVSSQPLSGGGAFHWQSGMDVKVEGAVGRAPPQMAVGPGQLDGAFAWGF
UniProt A0A0P0XHX1: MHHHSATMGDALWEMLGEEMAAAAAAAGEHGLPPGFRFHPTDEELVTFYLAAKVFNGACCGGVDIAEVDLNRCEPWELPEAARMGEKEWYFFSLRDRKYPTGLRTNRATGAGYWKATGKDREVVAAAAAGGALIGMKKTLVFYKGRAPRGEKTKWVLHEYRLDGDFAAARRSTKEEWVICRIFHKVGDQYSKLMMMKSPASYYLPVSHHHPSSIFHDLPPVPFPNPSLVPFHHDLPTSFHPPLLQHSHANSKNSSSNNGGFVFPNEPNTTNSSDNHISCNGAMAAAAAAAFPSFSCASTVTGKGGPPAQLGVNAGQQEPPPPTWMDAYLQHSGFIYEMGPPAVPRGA

From publication PMC7821251 come the findings set out here.

The test addresses OsCUC1 (BiFC fusion) (rice (Oryza sativa)) (UniProt Q5Z7R9). Put plainly: split reporter; BiFC of rice proteins; p35S-Vn and p35S-Vc fusions co-expressed in rice protoplasts; confocal microscopy.

As to “OsCUC3 (BiFC fusion) (from UniProt A0A0P0XHX1)”, the binding result is “binds”.
